These are yes or no findings as the source states them, for the method shown. In cells and extracts the contact can be indirect. A yes stands for co-enrichment or nearness to the bait. Other partners may have been found.
Tests used:
[1] = target: Psip1/p52 (endogenous) (mouse (endogenous in NIH 3T3 and MEFs)) (UniProt Q99JF8); test: affinity purification with mass spectrometry; A300-847 IP from NIH 3T3 nuclear extract, washes with 200 mM KCl; gel bands analysed by MS/MS (Mascot)
[2] = target: Psip1/p52 (endogenous) (mouse (endogenous in NIH 3T3 and MEFs)) (UniProt Q99JF8); test: affinity purification with mass spectrometry; A300-847 IP from wild-type MEF nuclear extract; gel region of 25-40 kDa analysed by mass spectrometry

By UniProt entry, the sequences of proteins in these tests, tags left out. Where a name states a change or a piece, a line headed by the entry shows the natural chain unless it says otherwise. Chains listed by the source or under a name are the forms on record and can include a tag or linker.
Psip1/p52 (endogenous) (mouse (endogenous in NIH 3T3 and MEFs)) (Q99JF8, form named): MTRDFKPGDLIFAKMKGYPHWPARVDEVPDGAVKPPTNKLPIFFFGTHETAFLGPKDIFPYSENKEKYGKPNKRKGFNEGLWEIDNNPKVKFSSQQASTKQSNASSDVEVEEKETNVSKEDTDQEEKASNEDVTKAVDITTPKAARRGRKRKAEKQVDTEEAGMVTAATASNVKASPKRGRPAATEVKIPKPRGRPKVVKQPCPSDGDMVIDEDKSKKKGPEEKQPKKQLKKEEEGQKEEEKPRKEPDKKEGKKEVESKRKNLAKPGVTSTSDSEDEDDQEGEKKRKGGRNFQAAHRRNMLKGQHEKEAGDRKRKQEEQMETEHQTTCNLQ
UniProt Q80Y44: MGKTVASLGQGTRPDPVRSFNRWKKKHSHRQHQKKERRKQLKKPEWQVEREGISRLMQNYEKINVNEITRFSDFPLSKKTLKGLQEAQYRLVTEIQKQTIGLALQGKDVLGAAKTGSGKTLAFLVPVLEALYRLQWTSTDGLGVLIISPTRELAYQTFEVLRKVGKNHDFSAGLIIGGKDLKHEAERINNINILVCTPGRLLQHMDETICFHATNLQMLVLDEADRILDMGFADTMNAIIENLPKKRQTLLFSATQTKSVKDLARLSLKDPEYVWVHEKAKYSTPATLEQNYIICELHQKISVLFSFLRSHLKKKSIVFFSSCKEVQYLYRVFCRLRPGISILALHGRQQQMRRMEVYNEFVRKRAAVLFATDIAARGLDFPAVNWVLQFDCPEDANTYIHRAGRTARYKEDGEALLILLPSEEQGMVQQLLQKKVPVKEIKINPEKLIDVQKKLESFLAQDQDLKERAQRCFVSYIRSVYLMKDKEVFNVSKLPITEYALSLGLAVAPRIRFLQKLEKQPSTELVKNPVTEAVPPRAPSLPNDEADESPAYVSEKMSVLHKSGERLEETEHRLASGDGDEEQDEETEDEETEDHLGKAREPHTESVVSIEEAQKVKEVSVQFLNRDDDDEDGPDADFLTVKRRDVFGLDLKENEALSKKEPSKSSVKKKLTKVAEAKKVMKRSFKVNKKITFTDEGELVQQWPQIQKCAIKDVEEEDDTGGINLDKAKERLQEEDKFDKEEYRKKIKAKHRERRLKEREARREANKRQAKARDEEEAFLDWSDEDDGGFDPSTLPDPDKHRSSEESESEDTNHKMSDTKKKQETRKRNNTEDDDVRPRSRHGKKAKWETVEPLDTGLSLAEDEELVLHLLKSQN
UniProt O70133: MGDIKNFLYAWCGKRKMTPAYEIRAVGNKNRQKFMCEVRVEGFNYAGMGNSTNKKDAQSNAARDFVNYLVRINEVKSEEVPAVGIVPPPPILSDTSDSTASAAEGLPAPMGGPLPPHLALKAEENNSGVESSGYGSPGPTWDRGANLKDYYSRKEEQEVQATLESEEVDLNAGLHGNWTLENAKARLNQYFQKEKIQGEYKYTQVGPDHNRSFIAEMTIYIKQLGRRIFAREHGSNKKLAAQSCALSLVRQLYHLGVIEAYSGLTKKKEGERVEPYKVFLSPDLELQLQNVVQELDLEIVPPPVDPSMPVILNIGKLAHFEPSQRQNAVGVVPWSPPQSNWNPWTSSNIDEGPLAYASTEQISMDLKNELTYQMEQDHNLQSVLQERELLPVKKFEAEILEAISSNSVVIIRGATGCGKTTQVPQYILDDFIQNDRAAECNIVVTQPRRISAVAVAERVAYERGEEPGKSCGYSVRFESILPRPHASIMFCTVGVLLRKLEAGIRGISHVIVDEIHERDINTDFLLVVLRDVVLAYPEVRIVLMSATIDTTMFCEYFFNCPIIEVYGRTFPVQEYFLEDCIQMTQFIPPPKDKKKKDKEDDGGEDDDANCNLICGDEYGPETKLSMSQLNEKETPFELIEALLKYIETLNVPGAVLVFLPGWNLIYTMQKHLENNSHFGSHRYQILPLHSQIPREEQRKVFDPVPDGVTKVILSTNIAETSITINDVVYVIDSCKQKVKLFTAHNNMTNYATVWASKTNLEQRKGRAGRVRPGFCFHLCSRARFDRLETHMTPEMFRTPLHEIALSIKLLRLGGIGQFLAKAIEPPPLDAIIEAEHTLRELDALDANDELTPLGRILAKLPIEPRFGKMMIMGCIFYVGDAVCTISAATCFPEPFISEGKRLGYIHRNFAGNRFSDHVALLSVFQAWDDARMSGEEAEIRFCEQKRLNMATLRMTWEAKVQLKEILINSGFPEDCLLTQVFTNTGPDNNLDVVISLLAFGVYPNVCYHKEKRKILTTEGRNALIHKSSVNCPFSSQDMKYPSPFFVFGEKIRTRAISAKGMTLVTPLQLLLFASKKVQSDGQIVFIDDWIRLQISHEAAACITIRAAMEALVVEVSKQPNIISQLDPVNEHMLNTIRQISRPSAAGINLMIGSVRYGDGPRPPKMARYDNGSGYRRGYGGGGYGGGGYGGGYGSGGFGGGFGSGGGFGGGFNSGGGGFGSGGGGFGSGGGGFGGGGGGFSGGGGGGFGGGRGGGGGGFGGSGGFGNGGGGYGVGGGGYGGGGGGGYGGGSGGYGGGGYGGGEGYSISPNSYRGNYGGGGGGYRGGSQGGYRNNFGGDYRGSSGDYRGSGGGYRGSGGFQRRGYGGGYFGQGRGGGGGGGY
UniProt Q6PDM2: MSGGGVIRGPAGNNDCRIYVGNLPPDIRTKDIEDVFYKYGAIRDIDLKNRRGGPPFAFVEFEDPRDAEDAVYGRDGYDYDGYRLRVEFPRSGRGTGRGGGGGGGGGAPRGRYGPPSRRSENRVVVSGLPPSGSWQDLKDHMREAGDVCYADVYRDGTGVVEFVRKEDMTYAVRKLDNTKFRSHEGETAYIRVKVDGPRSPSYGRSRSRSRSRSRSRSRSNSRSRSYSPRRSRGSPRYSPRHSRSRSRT
UniProt Q6P4T2: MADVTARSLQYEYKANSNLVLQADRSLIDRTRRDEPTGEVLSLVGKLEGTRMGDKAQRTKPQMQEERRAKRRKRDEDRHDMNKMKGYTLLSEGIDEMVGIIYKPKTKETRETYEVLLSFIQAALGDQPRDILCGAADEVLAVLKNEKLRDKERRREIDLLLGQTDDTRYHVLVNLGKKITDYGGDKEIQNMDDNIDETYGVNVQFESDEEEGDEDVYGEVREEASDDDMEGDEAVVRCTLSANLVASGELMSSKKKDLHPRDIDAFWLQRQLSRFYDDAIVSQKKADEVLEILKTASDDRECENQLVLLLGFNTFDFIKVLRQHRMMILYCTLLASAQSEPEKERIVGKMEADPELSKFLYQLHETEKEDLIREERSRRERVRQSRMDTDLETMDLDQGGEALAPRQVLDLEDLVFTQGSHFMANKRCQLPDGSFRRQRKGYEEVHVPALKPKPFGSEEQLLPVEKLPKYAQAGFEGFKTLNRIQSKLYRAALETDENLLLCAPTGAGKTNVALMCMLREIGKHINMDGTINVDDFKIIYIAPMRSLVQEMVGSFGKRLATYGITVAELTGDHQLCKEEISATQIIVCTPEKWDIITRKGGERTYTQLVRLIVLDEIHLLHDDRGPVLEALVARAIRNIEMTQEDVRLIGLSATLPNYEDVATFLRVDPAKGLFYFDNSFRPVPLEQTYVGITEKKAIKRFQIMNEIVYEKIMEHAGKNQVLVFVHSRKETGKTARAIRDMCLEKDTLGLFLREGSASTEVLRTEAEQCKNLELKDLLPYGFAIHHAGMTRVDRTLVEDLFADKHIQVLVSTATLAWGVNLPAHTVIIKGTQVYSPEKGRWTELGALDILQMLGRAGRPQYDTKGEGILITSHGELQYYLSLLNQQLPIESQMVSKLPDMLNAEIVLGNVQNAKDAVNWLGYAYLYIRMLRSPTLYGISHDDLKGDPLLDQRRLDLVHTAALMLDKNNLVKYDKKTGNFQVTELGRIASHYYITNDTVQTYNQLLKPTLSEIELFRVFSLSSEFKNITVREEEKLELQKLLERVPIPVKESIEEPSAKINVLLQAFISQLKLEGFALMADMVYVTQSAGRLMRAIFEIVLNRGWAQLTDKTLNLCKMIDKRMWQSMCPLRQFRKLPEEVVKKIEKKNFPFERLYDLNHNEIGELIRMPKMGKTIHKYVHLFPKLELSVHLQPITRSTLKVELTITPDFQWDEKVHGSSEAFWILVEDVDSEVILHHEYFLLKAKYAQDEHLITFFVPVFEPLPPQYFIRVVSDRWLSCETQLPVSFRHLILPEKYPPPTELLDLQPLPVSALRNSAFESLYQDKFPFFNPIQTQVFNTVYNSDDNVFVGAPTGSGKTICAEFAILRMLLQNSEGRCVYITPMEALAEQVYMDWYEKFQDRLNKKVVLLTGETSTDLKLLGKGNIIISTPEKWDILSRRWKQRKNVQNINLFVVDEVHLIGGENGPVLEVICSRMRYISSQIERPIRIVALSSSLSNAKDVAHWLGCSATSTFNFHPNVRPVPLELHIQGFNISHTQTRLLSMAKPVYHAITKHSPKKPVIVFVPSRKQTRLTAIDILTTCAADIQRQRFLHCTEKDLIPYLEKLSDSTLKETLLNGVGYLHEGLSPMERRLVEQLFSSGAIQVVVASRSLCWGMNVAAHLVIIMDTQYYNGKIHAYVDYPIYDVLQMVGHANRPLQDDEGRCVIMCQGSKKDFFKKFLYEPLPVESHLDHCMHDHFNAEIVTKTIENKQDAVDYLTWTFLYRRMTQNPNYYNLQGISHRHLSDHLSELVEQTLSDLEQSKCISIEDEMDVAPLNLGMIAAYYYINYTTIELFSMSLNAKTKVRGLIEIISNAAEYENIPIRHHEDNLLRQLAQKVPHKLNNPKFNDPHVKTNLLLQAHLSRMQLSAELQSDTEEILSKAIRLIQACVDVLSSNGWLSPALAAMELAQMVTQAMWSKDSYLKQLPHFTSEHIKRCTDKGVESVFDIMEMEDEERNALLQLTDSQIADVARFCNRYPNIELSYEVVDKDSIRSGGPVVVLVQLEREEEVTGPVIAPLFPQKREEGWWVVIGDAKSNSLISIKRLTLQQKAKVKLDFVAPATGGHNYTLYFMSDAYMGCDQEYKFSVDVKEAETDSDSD
UniProt Q9WV02: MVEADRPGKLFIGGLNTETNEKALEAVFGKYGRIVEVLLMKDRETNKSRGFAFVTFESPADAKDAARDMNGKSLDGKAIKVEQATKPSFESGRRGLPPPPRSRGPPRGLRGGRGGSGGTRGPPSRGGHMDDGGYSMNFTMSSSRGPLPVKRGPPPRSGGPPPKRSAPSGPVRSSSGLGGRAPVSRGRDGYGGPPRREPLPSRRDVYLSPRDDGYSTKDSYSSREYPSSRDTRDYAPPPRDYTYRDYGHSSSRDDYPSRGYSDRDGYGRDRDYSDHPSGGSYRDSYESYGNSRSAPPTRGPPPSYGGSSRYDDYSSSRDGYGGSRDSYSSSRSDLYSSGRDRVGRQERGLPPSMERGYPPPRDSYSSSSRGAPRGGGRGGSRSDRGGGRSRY
UniProt Q00PI9: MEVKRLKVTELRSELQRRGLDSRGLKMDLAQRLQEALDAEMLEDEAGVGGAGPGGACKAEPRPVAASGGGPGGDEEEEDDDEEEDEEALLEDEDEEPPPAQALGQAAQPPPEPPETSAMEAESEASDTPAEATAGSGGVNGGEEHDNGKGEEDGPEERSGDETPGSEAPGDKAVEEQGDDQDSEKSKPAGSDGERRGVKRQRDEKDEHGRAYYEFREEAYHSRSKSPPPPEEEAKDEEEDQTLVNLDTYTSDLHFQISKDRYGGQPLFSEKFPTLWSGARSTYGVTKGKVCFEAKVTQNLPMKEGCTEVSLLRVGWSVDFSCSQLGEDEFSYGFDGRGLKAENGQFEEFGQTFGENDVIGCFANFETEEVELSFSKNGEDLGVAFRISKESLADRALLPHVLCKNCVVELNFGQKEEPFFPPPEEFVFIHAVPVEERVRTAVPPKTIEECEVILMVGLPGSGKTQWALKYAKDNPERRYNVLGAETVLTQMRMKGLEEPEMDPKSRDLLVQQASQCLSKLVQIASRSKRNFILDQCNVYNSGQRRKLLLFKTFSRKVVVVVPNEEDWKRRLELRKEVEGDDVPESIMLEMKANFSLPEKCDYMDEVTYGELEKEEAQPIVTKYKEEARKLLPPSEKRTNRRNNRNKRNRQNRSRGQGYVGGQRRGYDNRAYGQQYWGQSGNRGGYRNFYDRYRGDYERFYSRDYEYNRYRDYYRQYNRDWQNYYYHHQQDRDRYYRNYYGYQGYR

Substance	binding [1]	binding [2]
DDX3X (from UniProt Q62167 1-662)	binds	–
DDX3Y (from UniProt Q62095 1-658)	binds	–
DDX10 (from UniProt Q80Y44 1-875)	binds	–
DDX41 (from UniProt Q91VN6 1-622)	binds	–
DDX54 (from UniProt Q8K4L0 1-874)	binds	–
DHX15 (from UniProt O35286 1-795)	binds	–
DHX 9 (from UniProt O70133 1-1380)	binds	–
FXR1 (from UniProt Q61584 1-677)	binds	–
NOC2L (from UniProt Q9WV70 1-747)	binds	–
Pinin (from UniProt O35691 1-725)	binds	–
Ppig (from UniProt A2AR02 1-752)	binds	–
Prpf4b (from UniProt Q61136 1-1007)	binds	–
RRP5 (from UniProt Q6NS46 1-1862)	binds	–
SRp38 (from UniProt Q9R0U0-1 1-262)	binds	–
Safb2 (from UniProt Q80YR5 1-991)	binds	–
Srrm2 (from UniProt Q8BTI8 1-2703)	binds	–
Srsf1 (endogenous) (from UniProt Q6PDM2 1-248)	binds	binds
U5-200KD (from UniProt Q6P4T2 1-2136)	binds	–
hnRNPg (from UniProt Q9WV02 1-391)	binds	–
hnRNPk (from UniProt P61979 1-463)	binds	–
hnRNPu like (from UniProt Q00PI9 1-745)	binds	–

From PMC3355077
